Columns and labels:
[1] = general procedure: Fmoc solid-phase peptide synthesis; Rink Amide AM resin LL (0.40 mmol/g); 2-chlorotrityl chloride resin (1.5-1.9 mmol/g); DHP HM resin (1.17 mmol/g); HATU/DIPEA (manual); conditions: conjugation step
[2] = general procedure: Fmoc solid-phase peptide synthesis; DHP-HM resin; HATU/DIPEA (manual); conditions: oxidative folding step
[3] = general procedure: Fmoc solid-phase peptide synthesis; 2-chlorotrityl chloride resin; HATU/DIPEA (manual); conditions: oxidative folding step

**Q.** With XYSTEVVALSRLQ as the substance, how does the conjugation yield ([1]; run 1) read?
**A.** The conjugation yield was 57%.

**Q.** What about the conjugation yield ([1]; run 2) of the same substance?
**A.** The conjugation yield was 60%.

**Q.** With “(1-azido-13-oxo-3,6,9-trioxa-12-azahexadecan-16-oyl)-trp-cyclo(Cys-Thr-phe-Thr-Tyr-Cys)-Lys(ol)” as the substance, how does the difficulty met [2] read?
**A.** Its difficulty met is “Cyclized peptide toc6 (X) was obtained a's a white solid. Low yield was accepted in favor of purity”.

**Q.** For “(1-azido-13-oxo-3,6,9-trioxa-12-azahexadecan-16-oyl)-phe-cyclo(Cys-Tyr-trp-Lys-Thr-Cys)-Thr(ol)”, which difficulty met [2] is on record?
**A.** Its difficulty met is “Cyclized peptide toc4 (X) was obtained a's a white solid. Low yield was accepted in favor of purity”.

**Q.** For “(1-azido-13-oxo-3,6,9-trioxa-12-azahexadecan-16-oyl)-phe-cyclo(Cys-Tyr-trp-Lys-Thr-Cys)-Thr-OH”, which difficulty met [3] is on record?
**A.** The difficulty met was “Cyclized peptide tate2 (X) was obtained a's a white solid. Low yield was accepted in favor of purity”.
